In PMC10011557:
These are yes or no findings as the source states them, for the method shown. Binding seen in cells or lysates may run through a third protein. Here binding means that the protein was enriched with, or labelled near, the bait; the list need not be complete.

Biological target: Flag-tagged AMPKα2
Assay: affinity purification with mass spectrometry; Flag-AMPKα2 expressed in 293T; glucose deprived 6 h, glucose added back 1 h; lysis in 150 mM KCl, 0.2% NP-40, 10% glycerol, 20 mM Tris pH 7.5, 0.5 mM DTT; anti-Flag beads overnight, eluted with Flag peptide, SDS-PAGE, mass spectrometry

Binder	binding
cell division cycle 37 (CDC37) (protein, UniProt Q16543 1-378) MVDYSVWDHIEVSDDEDETHPNIDTASLFRWRHQARVERMEQFQKEKEELDRGCRECKRKVAECQRKLKELEVAEGGKAELERLQAEAQQLRKEERSWEQKLEEMRKKEKSMPWNVDTLSKDGFSKSMVNTKPEKTEEDSEEVREQKHKTFVEKYEKQIKHFGMLRRWDDSQKYLSDNVHLVCEETANYLVIWCIDLEVEEKCALMEQVAHQTIVMQFILELAKSLKVDPRACFRQFFTKIKTADRQYMEGFNDELEAFKERVRGRAKLRIEKAMKEYEEEERKKRLGPGGLDPVEVYESLPEELQKCFDVKDVQMLQDAISKMDPTDAKYHMQRCIDSGLWVPNSKASEAKEGEEAGPGDPLLEAVPKTGDEKDVSV	binds
serine/threonine-protein phosphatase 6 regulatory subunit 3, SAPS3 (endogenous, 293T) (protein, UniProt Q5H9R7 1-873) MFWKFDLHSSSHIDTLLEREDVTLKELMDEEDVLQECKAQNRKLIEFLLKAECLEDLVSFIIEEPPQDMDEKIRYKYPNISCELLTSDVSQMNDRLGEDESLLMKLYSFLLNDSPLNPLLASFFSKVLSILISRKPEQIVDFLKKKHDFVDLIIKHIGTSAIMDLLLRLLTCIEPPQPRQDVLNWLNEEKIIQRLVEIVHPSQEEDRHSNASQSLCEIVRLSRDQMLQIQNSTEPDPLLATLEKQEIIEQLLSNIFHKEKNESAIVSAIQILLTLLETRRPTFEGHIEICPPGMSHSACSVNKSVLEAIRGRLGSFHELLLEPPKKSVMKTTWGVLDPPVGNTRLNVIRLISSLLQTNTSSINGDLMELNSIGVILNMFFKYTWNNFLHTQVEICIALILASPFENTENATITDQDSTGDNLLLKHLFQKCQLIERILEAWEMNEKKQAEGGRRHGYMGHLTRIANCIVHSTDKGPNSALVQQLIKDLPDEVRERWETFCTSSLGETNKRNTVDLVTTCHIHSSSDDEIDFKETGFSQDSSLQQAFSDYQMQQMTSNFIDQFGFNDEKFADQDDIGNVSFDRVSDINFTLNTNESGNIALFEACCKERIQQFDDGGSDEEDIWEEKHIAFTPESQRRSSSGSTDSEESTDSEEEDGAKQDLFEPSSANTEDKMEVDLSEPPNWSANFDVPMETTHGAPLDSVGSDVWSTEEPMPTKETGWASFSEFTSSLSTKDSLRSNSPVEMETSTEPMDPLTPSAAALAVQPEAAGSVAMEASSDGEEDAESTDKVTETVMNGGMKETLSLTVDAKTETAVFKSEEGKLSTSQDAACKDAEECPETAEAKCAAPRPPSSSPEQRTGQPSAPGDTSVNGPV	binds
ankyrin repeat domain 28 (ANKRD28), scaffolding subunit of PP6 (protein, UniProt O15084 1-1053) MAFLKLRDQPSLVQAIFNGDPDEVRALIFKKEDVNFQDNEKRTPLHAAAYLGDAEIIELLILSGARVNAKDSKWLTPLHRAVASCSEEAVQVLLKHSADVNARDKNWQTPLHIAAANKAVKCAEALVPLLSNVNVSDRAGRTALHHAAFSGHGEMVKLLLSRGANINAFDKKDRRAIHWAAYMGHIEVVKLLVSHGAEVTCKDKKSYTPLHAAASSGMISVVKYLLDLGVDMNEPNAYGNTPLHVACYNGQDVVVNELIDCGAIVNQKNEKGFTPLHFAAASTHGALCLELLVGNGADVNMKSKDGKTPLHMTALHGRFSRSQTIIQSGAVIDCEDKNGNTPLHIAARYGHELLINTLITSGADTAKRGIHGMFPLHLAALSGFSDCCRKLLSSGFDIDTPDDFGRTCLHAAAAGGNLECLNLLLNTGADFNKKDKFGRSPLHYAAANCNYQCLFALVGSGASVNDLDERGCTPLHYAATSDTDGKCLEYLLRNDANPGIRDKQGYNAVHYSAAYGHRLCLQLIASETPLDVLMETSGTDMLSDSDNRATISPLHLAAYHGHHQALEVLVQSLLDLDVRNSSGRTPLDLAAFKGHVECVDVLINQGASILVKDYILKRTPIHAAATNGHSECLRLLIGNAEPQNAVDIQDGNGQTPLMLSVLNGHTDCVYSLLNKGANVDAKDKWGRTALHRGAVTGHEECVDALLQHGAKCLLRDSRGRTPIHLSAACGHIGVLGALLQSAASMDANPATADNHGYTALHWACYNGHETCVELLLEQEVFQKTEGNAFSPLHCAVINDNEGAAEMLIDTLGASIVNATDSKGRTPLHAAAFTDHVECLQLLLSHNAQVNSVDSTGKTPLMMAAENGQTNTVEMLVSSASAELTLQDNSKNTALHLACSKGHETSALLILEKITDRNLINATNAALQTPLHVAARNGLTMVVQELLGKGASVLAVDENGYTPALACAPNKDVADCLALILATMMPVSSSSPLSSLTFNAINRYTNTSKTVSFEALPIMRNEPSSYCSFNNIGGEQEYLYTDVDELNDSDSETY	binds
ubiquitin-conjugating enzyme E2 O (UBE2O) (enzyme, UniProt Q9C0C9 1-1292) MADPAAPTPAAPAPAQAPAPAPEAVPAPAAAPVPAPAPASDSASGPSSDSGPEAGSQRLLFSHDLVSGRYRGSVHFGLVRLIHGEDSDSEGEEEGRGSSGCSEAGGAGHEEGRASPLRRGYVRVQWYPEGVKQHVKETKLKLEDRSVVPRDVVRHMRSTDSQCGTVIDVNIDCAVKLIGTNCIIYPVNSKDLQHIWPFMYGDYIAYDCWLGKVYDLKNQIILKLSNGARCSMNTEDGAKLYDVCPHVSDSGLFFDDSYGFYPGQVLIGPAKIFSSVQWLSGVKPVLSTKSKFRVVVEEVQVVELKVTWITKSFCPGGTDSVSPPPSVITQENLGRVKRLGCFDHAQRQLGERCLYVFPAKVEPAKIAWECPEKNCAQGEGSMAKKVKRLLKKQVVRIMSCSPDTQCSRDHSMEDPDKKGESKTKSEAESASPEETPDGSASPVEMQDEGAEEPHEAGEQLPPFLLKEGRDDRLHSAEQDADDEAADDTDDTSSVTSSASSTTSSQSGSGTSRKKSIPLSIKNLKRKHKRKKNKITRDFKPGDRVAVEVVTTMTSADVMWQDGSVECNIRSNDLFPVHHLDNNEFCPGDFVVDKRVQSCPDPAVYGVVQSGDHIGRTCMVKWFKLRPSGDDVELIGEEEDVSVYDIADHPDFRFRTTDIVIRIGNTEDGAPHKEDEPSVGQVARVDVSSKVEVVWADNSKTIILPQHLYNIESEIEESDYDSVEGSTSGASSDEWEDDSDSWETDNGLVEDEHPKIEEPPIPPLEQPVAPEDKGVVISEEAATAAVQGAVAMAAPMAGLMEKAGKDGPPKSFRELKEAIKILESLKNMTVEQLLTGSPTSPTVEPEKPTREKKFLDDIKKLQENLKKTLDNVAIVEEEKMEAVPDVERKEDKPEGQSPVKAEWPSETPVLCQQCGGKPGVTFTSAKGEVFSVLEFAPSNHSFKKIEFQPPEAKKFFSTVRKEMALLATSLPEGIMVKTFEDRMDLFSALIKGPTRTPYEDGLYLFDIQLPNIYPAVPPHFCYLSQCSGRLNPNLYDNGKVCVSLLGTWIGKGTERWTSKSSLLQVLISIQGLILVNEPYYNEAGFDSDRGLQEGYENSRCYNEMALIRVVQSMTQLVRRPPEVFEQEIRQHFSTGGWRLVNRIESWLETHALLEKAQALPNGVPKASSSPEPPAVAELSDSGQQEPEDGGPAPGEASQGSDSEGGAQGLASASRDHTDQTSETAPDASVPPSVKPKKRRKSYRSFLPEKSGYPDIGFPLFPLSKGFIKSIRGVLTQFRAALLEAGMPECTEDK	binds
